No constants are given. Whether binding was seen depends on the method and setting. Some entries that bind do so weakly or less than the wild type.
What was measured:
[1] = target: T1, Xenopus cdc2/cyclin B complex (Xenopus laevis) (UniProt P24033+P13351); assay: depletion of Xenopus extracts on p13-Sepharose
[2] = target: Xenopus cdc2 (34 kD) (Xenopus laevis) (UniProt P24033); assay: p13-Sepharose precipitation of Xenopus oocyte extracts, Western blot
[3] = target: T1, Xenopus cdc2/cyclin B complex (Xenopus laevis); assay: p13-Sepharose precipitates of Xenopus extracts probed with anti-cyclin B2 antibody

Sequences of proteins named here, by UniProt entry; tags and fusion partners are left off. A change or cut given only in a name is not applied to a line headed by its entry.
UniProt P24033: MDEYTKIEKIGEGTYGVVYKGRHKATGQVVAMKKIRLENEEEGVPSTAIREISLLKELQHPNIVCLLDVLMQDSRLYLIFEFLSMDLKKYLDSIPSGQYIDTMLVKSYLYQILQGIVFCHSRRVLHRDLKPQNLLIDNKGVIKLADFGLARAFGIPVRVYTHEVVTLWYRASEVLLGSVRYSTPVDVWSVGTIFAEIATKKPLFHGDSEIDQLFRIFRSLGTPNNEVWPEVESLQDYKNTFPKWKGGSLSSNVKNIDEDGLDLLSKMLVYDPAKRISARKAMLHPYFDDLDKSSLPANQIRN
UniProt P13351: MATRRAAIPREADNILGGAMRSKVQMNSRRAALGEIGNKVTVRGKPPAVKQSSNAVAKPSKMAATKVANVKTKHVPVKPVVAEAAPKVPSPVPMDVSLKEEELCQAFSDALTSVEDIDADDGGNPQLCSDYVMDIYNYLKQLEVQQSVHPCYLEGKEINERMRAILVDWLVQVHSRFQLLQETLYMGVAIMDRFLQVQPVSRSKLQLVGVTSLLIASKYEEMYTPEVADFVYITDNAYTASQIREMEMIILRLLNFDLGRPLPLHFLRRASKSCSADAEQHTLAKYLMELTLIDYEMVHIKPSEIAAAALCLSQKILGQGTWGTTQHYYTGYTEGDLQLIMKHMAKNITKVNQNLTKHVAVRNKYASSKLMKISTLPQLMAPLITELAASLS

Measured: binding

B1: p13 protein encoded by the suc1 gene (protein, fission yeast, UniProt P08463 1-113, looked up)
chain: MSKSGVPRLLTASERERLEPFIDQIHYSPRYADDEYEYRHVMLPKAMLKAIPTDYFNPETGTLRILQEEEWRGLGITQSLGWEMYEVHVPEPHILLFKREKDYQMKFSQQRGG
binds: [1] | [2] | [3]

— patent US7005258
